Results: the supplement of paper PMC10849652
The list shows a part of the results.

Amino acid sequences for entries named in this document (tags omitted). A change or cut given only in a name is not applied to a line headed by its entry.
UniProt Q9NQT8: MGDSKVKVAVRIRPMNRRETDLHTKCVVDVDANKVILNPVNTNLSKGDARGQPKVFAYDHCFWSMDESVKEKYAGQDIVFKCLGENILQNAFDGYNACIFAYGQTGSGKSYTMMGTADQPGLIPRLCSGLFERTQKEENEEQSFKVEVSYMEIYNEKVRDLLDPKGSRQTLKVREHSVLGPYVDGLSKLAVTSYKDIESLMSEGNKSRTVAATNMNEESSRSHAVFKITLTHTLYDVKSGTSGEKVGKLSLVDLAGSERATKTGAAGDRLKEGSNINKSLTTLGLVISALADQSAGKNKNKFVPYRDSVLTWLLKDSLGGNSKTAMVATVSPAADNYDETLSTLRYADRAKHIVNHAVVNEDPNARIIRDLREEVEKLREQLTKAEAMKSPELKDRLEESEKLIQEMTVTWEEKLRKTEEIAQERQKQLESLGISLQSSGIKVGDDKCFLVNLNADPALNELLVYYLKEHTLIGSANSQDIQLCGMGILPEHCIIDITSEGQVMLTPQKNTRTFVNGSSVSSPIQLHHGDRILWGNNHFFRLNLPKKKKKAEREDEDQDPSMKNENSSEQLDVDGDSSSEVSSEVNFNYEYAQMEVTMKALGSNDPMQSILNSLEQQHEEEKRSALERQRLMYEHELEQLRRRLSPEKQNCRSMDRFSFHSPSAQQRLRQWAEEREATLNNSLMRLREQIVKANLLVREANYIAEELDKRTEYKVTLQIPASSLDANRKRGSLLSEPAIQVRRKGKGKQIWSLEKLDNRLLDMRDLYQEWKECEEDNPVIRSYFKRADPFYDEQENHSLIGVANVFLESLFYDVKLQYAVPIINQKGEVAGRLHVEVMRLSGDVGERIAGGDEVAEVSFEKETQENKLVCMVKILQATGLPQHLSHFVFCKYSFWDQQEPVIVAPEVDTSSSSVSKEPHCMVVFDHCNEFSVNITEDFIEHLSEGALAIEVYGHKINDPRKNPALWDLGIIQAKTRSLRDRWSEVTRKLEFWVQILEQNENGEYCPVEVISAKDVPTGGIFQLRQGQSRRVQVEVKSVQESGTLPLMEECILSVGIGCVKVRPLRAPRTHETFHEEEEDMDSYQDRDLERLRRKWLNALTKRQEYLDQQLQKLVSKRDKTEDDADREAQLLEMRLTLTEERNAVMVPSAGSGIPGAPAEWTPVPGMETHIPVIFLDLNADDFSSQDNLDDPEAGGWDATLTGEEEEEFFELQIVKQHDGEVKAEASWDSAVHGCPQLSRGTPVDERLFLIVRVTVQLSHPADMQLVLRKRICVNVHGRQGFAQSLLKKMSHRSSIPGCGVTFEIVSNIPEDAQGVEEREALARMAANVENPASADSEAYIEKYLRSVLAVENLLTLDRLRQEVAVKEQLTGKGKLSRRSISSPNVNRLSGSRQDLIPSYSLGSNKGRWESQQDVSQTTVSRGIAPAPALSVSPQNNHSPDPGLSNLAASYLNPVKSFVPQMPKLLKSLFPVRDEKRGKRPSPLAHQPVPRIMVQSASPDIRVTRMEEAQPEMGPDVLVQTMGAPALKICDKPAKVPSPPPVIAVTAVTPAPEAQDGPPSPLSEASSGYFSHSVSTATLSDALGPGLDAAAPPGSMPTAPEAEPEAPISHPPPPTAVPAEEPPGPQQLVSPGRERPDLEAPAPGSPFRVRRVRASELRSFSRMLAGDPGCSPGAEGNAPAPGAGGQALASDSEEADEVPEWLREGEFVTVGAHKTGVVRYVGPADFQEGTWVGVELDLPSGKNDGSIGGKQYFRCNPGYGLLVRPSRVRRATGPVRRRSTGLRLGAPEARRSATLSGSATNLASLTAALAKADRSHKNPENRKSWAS
UniProt Q9H1H9: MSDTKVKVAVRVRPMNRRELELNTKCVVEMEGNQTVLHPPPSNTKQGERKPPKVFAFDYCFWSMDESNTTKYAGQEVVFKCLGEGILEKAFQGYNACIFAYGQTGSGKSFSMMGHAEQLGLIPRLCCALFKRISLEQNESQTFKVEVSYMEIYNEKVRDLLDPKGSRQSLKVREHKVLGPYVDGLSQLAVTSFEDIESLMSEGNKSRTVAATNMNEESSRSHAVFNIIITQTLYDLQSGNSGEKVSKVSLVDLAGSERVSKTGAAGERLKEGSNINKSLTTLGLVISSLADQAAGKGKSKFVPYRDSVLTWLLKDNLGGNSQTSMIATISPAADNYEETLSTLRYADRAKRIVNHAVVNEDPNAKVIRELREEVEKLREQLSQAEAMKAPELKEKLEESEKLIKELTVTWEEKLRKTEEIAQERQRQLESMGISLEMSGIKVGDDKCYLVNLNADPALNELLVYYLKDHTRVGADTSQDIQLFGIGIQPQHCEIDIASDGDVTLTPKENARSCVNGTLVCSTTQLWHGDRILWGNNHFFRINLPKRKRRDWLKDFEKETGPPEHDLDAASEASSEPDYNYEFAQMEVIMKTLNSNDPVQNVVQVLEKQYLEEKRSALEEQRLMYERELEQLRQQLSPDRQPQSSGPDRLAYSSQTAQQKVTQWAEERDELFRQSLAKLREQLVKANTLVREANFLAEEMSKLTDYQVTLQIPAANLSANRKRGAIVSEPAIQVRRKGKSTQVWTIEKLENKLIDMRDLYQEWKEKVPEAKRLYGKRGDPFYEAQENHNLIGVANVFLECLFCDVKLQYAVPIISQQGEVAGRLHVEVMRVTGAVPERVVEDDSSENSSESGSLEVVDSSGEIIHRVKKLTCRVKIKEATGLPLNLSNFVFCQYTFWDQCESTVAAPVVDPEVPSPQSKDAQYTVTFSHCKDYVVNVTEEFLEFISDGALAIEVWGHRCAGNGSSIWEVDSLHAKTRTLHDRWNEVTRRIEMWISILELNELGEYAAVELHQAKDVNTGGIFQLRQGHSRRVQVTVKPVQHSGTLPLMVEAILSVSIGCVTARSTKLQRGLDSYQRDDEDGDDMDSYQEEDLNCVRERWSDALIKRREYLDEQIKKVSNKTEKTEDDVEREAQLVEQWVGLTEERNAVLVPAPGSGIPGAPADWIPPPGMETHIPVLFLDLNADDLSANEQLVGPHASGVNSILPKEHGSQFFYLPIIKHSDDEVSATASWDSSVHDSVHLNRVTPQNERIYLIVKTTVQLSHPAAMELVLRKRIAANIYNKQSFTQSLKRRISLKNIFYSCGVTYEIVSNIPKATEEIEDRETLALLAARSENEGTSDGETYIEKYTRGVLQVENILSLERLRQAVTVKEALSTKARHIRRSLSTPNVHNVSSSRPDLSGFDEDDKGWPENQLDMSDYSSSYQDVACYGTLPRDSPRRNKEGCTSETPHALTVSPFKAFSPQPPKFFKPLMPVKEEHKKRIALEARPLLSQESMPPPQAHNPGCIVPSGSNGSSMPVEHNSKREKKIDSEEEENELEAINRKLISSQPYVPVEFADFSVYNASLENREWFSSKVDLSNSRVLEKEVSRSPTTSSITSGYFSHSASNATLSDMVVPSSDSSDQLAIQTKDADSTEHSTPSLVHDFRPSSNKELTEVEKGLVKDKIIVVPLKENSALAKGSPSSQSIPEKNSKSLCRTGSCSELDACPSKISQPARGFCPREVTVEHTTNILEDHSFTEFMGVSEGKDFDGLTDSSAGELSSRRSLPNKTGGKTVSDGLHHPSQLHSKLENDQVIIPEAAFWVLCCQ
UniProt P41229: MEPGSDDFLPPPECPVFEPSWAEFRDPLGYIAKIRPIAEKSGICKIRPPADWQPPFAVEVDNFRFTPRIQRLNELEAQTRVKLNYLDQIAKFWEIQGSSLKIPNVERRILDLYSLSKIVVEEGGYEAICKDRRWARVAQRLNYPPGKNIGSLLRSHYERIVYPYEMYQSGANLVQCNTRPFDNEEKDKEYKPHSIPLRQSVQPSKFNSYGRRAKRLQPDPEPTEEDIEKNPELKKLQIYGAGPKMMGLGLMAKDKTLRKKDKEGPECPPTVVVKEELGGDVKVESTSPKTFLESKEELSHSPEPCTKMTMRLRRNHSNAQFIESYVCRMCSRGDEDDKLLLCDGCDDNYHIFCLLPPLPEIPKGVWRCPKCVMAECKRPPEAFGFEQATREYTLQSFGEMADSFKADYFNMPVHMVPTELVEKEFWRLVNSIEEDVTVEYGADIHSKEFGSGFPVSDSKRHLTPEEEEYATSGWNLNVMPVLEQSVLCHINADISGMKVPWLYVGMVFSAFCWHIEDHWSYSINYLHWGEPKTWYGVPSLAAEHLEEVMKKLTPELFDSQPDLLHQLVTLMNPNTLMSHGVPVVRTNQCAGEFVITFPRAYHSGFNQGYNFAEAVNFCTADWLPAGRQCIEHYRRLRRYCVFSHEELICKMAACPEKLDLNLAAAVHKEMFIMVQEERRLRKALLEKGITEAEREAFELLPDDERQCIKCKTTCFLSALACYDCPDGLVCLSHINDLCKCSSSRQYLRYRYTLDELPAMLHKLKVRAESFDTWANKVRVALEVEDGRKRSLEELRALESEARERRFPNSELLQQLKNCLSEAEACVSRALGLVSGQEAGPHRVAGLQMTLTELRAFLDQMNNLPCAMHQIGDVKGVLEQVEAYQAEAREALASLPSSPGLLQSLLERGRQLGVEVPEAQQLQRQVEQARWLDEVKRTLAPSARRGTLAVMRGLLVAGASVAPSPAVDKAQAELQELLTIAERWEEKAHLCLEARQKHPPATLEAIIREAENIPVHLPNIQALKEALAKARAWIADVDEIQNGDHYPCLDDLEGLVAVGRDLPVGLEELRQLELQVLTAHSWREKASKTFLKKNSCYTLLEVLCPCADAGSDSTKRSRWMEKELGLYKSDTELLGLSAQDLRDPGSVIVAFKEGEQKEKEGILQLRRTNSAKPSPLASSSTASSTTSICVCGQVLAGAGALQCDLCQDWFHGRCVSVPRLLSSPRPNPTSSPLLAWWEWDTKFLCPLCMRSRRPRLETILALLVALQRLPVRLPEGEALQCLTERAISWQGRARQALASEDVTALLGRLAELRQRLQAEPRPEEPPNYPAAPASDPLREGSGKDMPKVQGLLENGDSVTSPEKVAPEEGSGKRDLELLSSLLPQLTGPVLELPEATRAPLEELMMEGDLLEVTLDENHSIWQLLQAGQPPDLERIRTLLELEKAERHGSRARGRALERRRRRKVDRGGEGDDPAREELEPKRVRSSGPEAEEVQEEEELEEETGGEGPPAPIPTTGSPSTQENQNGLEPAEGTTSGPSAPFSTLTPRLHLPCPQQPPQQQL
UniProt P13473: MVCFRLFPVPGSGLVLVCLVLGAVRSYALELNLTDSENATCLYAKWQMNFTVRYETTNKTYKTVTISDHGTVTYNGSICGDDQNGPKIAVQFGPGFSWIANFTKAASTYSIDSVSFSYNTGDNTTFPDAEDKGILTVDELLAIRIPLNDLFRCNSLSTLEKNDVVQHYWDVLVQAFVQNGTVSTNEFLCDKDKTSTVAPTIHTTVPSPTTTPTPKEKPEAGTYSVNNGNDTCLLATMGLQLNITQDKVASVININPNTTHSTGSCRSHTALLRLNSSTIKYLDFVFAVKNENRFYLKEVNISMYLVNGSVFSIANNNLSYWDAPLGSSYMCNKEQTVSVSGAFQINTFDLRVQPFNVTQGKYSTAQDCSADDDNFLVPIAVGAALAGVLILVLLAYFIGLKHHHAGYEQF
UniProt Q14974, whole entry, looked up: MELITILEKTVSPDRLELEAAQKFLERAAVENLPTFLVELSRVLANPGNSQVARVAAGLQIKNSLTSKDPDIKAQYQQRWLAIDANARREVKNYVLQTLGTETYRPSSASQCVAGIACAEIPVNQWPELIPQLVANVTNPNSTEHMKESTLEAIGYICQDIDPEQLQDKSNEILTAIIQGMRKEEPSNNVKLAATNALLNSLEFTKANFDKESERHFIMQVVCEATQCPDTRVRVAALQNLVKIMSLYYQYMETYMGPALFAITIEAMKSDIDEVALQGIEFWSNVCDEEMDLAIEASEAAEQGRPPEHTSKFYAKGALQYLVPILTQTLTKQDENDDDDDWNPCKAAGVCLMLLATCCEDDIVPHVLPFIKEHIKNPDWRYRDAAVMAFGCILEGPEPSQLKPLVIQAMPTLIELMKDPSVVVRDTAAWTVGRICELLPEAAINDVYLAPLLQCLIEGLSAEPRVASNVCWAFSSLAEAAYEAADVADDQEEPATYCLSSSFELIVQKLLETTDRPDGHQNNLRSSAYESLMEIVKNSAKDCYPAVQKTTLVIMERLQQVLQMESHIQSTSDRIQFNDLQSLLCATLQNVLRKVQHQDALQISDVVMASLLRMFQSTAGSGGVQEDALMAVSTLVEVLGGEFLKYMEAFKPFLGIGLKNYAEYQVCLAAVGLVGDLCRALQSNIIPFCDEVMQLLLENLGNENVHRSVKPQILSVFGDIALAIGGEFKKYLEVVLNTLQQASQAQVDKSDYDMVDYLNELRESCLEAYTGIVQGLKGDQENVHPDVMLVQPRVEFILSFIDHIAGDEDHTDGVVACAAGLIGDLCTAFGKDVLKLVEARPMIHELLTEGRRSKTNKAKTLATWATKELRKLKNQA

Assays:
Assay in all cases: log2 fold change, soluble protein after heating vs DMSO (PISA); higher = thermal stabilisation; K562 lysate, 10 uM; active = over 0.2 and 3.5 SD of the protein, either way, in both replicates (recomputed)
vemurafenib = compound: CCCS(=O)(=O)Nc1ccc(F)c(C(=O)c2c[nH]c3ncc(-c4ccc(Cl)cc4)cc23)c1F [vemurafenib]
How it was run: (§1)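 Values give the log-two fold change in thermal stability against solvent controls, from duplicates. Crude K562 extract at 1 mg/mL protein, made by dounce homogenisation in PBS pH 7.4 with 1 mM MgCl2, was treated with 10 μM compound for 30 min. After 3 min heating across 48°C-58°C, aliquots were pooled, adjusted to 0.5% NP-40 at 4°C and centrifuged at 21,000xg for 90 min. The supernatant was measured by TMTpro 16plex LC-MS/MS with channel sums equalised.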

[1] = compound: CCCS(=O)(=O)Nc1ccc(F)c(C(=O)c2c[nH]c3ncc(Cl)cc23)c1F
How it was run: as §1

barasertib = compound: CCN(CCCOc1ccc2c(Nc3cc(CC(=O)Nc4cccc(F)c4)[nH]n3)ncnc2c1)CCOP(=O)(O)O [barasertib]
How it was run: as §1

[2] = compound: CC[C@@H]1C(=O)N(C)c2cnc(Nc3ccc(C(=O)NC4CCN(C)CC4)cc3OC)nc2N1C1CCCC1
How it was run: as §1

volasertib = compound: CC[C@@H]1C(=O)N(C)c2cnc(Nc3ccc(C(=O)N[C@H]4CC[C@H](N5CCN(CC6CC6)CC5)CC4)cc3OC)nc2N1C(C)C [volasertib]
How it was run: as §1

[3] = compound: CCn1c(C(=O)N(C2CC2)C2CC2)cc2c3c(ncn3C)c(Nc3cc(C)n(C)n3)nc21
How it was run: as §1

[4] = compound: CCn1cc(-c2ccnc3[nH]c(-c4cccc(CN(C)C)c4)cc23)c(-c2ccc(NC(=O)N(C)C)cc2)n1
How it was run: as §1

[5] = compound: CN1CCC(CNc2ccc3ncc(-c4cccc(OC(F)(F)F)c4)n3n2)CC1
How it was run: as §1

saracatinib = compound: CN1CCN(CCOc2cc(OC3CCOCC3)c3c(Nc4c(Cl)ccc5c4OCO5)ncnc3c2)CC1 [saracatinib]
How it was run: as §1

sotrastaurin = compound: CN1CCN(c2nc(C3=C(c4c[nH]c5ccccc45)C(=O)NC3=O)c3ccccc3n2)CC1 [sotrastaurin]
How it was run: as §1

Measured: log2 fold change

KIF13B (UniProt Q9NQT8)
inactive: vemurafenib 0.025 | [1] 0.009 | barasertib 0.028 | [2] -0.025 | volasertib -0.06 | [3] 0.03 | [4] 0.007 | [5] -0.013 | saracatinib 0.005 | sotrastaurin -0.011

KDM6A (UniProt O15550)
inactive: vemurafenib -0.045 | [1] 0.006 | barasertib 0.017 | [2] 0.035 | volasertib -0.036 | [3] -0.017 | [4] 0.089 | [5] 0.067 | saracatinib 0.029 | sotrastaurin -0.01

KNTC1 (UniProt P50748)
inactive: vemurafenib -0.005 | [1] 0.004 | barasertib 0.028 | [2] -0.011 | volasertib -0.06 | [3] 0.014 | [4] -0.036 | [5] 0.008 | saracatinib 0.006 | sotrastaurin 0.049

KIF5B (UniProt P33176)
inactive: vemurafenib -0.036 | [1] 0.001 | barasertib 0.009 | [2] 0.017 | volasertib -0.025 | [3] 0.025 | [4] 0.043 | [5] -0.046 | saracatinib -0.03 | sotrastaurin 0.01

KIAA0100 (UniProt Q14667)
inactive: vemurafenib -0.022 | [1] 0.033 | barasertib 0.025 | [2] 0 | volasertib -0.001 | [3] -0.081 | [4] 0.063 | [5] 0.02 | saracatinib 0.037 | sotrastaurin 0.204

KIF3A (UniProt Q9Y496)
inactive: vemurafenib 0.012 | [1] 0.034 | barasertib 0.063 | [2] -0.004 | volasertib -0.123 | [3] -0.251 | [4] 0.04 | [5] 0.029 | saracatinib -0.037 | sotrastaurin -0.063

KIAA0930 isoform 2 (UniProt Q6ICG6)
inactive: vemurafenib -0.118 | [1] -0.009 | barasertib 0.002 | [2] 0.162 | volasertib 0.14 | [3] 0.159 | [4] -0.078 | [5] 0.028 | saracatinib 0.098 | sotrastaurin 0.075

KIF22 (UniProt Q14807)
inactive: vemurafenib -0.043 | [1] -0.049 | barasertib 0.009 | [2] 0.088 | volasertib 0.075 | [3] -0.189 | [4] -0.157 | [5] 0.308 | saracatinib 0.036 | sotrastaurin -0.084

KIF21B (UniProt O75037)
inactive: vemurafenib 0.161 | [1] 0.072 | barasertib -0.134 | [2] -0.023 | volasertib 0.016 | [3] -0.084 | [4] -0.037 | [5] -0.005 | saracatinib -0.047 | sotrastaurin -0.019

LARP1 (UniProt Q6PKG0)
inactive: vemurafenib -0.018 | [1] 0.008 | barasertib -0.012 | [2] -0.044 | volasertib -0.021 | [3] 0.007 | [4] 0.016 | [5] -0.043 | saracatinib 0.011 | sotrastaurin -0.011

KRBA1 (UniProt A5PL33)
inactive: vemurafenib 0.104 | [1] -0.006 | barasertib 0.097 | [2] 0.119 | volasertib -0.087 | [3] -0.01 | [4] 0.216 | [5] -0.083 | saracatinib -0.064 | sotrastaurin -0.162

KIF13A isoform 4 (UniProt Q9H1H9)
inactive: vemurafenib -0.039 | [1] 0.008 | barasertib 0.009 | [2] 0.012 | volasertib -0.033 | [3] -0.014 | [4] 0.035 | [5] -0.045 | saracatinib -0.016 | sotrastaurin 0.019

LARP4 isoform 4 (UniProt Q71RC2)
inactive: vemurafenib -0.024 | [1] 0.05 | barasertib 0.007 | [2] -0.015 | volasertib -0.021 | [3] -0.004 | [4] -0.058 | [5] 0.012 | saracatinib 0.057 | sotrastaurin 0.031

KLHL41 (UniProt O60662)
inactive: vemurafenib -0.115 | [1] -0.015 | barasertib 0.06 | [2] -0.085 | volasertib 0.05 | [3] -0.224 | [4] -0.382 | [5] 0.181 | saracatinib 0.105 | sotrastaurin -0.107

KDM5B isoform 2 (UniProt Q9UGL1)
inactive: vemurafenib 0.043 | [1] 0.073 | barasertib 0.039 | [2] 0.138 | volasertib 0.071 | [3] -0.059 | [4] -0.107 | [5] -0.034 | saracatinib -0.113 | sotrastaurin -0.136

KHK isoform 2 (UniProt P50053)
inactive: vemurafenib -0.021 | [1] 0 | barasertib 0.052 | [2] -0.053 | volasertib 0.017 | [3] 0.076 | [5] -0.072 | saracatinib 0.067 | sotrastaurin 0.013
active: [4] 0.404

LAGE3 (UniProt Q14657)
inactive: vemurafenib 0.016 | [1] 0.004 | barasertib 0.128 | [2] -0.032 | volasertib 0.005 | [3] 0.058 | [4] -0.024 | [5] -0.003 | saracatinib 0.019 | sotrastaurin -0.024

KIN (UniProt O60870)
inactive: vemurafenib 0.017 | [1] -0.009 | barasertib -0.02 | [2] -0.007 | volasertib 0.003 | [3] -0.007 | [4] -0.035 | [5] -0.022 | saracatinib -0.053 | sotrastaurin 0.021

KDSR (UniProt Q06136)
inactive: vemurafenib 0.041 | [1] -0.012 | barasertib 0.036 | [2] 0.017 | volasertib 0.013 | [3] -0.034 | [4] -0.143 | [5] 0.156 | saracatinib 0.036 | sotrastaurin -0.018

KHSRP (UniProt Q92945)
inactive: vemurafenib -0.033 | [1] -0.01 | barasertib -0.01 | [2] 0.036 | volasertib 0.004 | [3] 0.032 | [4] 0.058 | [5] 0.004 | saracatinib 0.003 | sotrastaurin -0.001

L3HYPDH (UniProt Q96EM0)
inactive: vemurafenib 0.04 | [1] 0.033 | barasertib 0.015 | [2] 0.002 | volasertib -0.017 | [3] 0.011 | [4] 0.01 | [5] 0.012 | saracatinib -0.027 | sotrastaurin -0.008

KIAA0319L (UniProt Q8IZA0)
inactive: vemurafenib -0.012 | [1] -0.028 | barasertib 0.032 | [2] 0.046 | volasertib 0.016 | [3] 0.007 | [4] 0.03 | [5] 0.006 | saracatinib 0.046 | sotrastaurin -0.003

KDM5C (UniProt P41229)
inactive: vemurafenib 0.001 | [1] 0.036 | barasertib 0.096 | [2] -0.031 | volasertib 0.004 | [3] -0.001 | [4] -0.028 | [5] -0.059 | saracatinib 0.008 | sotrastaurin 0.019

Two consecutive records already listed, for reference:
L3HYPDH (UniProt Q96EM0)
inactive: vemurafenib 0.04 | [1] 0.033 | barasertib 0.015 | [2] 0.002 | volasertib -0.017 | [3] 0.011 | [4] 0.01 | [5] 0.012 | saracatinib -0.027 | sotrastaurin -0.008

KIAA0319L (UniProt Q8IZA0)
inactive: vemurafenib -0.012 | [1] -0.028 | barasertib 0.032 | [2] 0.046 | volasertib 0.016 | [3] 0.007 | [4] 0.03 | [5] 0.006 | saracatinib 0.046 | sotrastaurin -0.003

The listing continues.

KIAA2013 (UniProt Q8IYS2)
inactive: vemurafenib -0.047 | [1] 0.031 | barasertib 0.016 | [2] -0.032 | volasertib 0.006 | [3] 0.014 | [4] 0.037 | [5] 0.017 | saracatinib 0.026 | sotrastaurin -0.074

LACTB (UniProt P83111)
inactive: vemurafenib 0.028 | [1] 0.035 | barasertib 0.052 | [2] -0.028 | volasertib -0.044 | [3] -0.057 | [4] 0.085 | [5] 0.014 | saracatinib -0.013 | sotrastaurin 0.047

LANCL2 (UniProt Q9NS86)
inactive: vemurafenib 0.04 | [1] 0.034 | barasertib -0.025 | [2] -0.045 | volasertib -0.025 | [3] -0.014 | [4] 0.001 | [5] -0.007 | saracatinib -0.003 | sotrastaurin -0.016

LAMP2 (UniProt P13473)
inactive: vemurafenib -0.03 | [1] 0.002 | barasertib -0.013 | [2] 0.044 | volasertib 0.049 | [3] 0.006 | [4] 0.055 | [5] 0.047 | saracatinib -0.027 | sotrastaurin 0.026

KPNB1 (UniProt Q14974)
inactive: vemurafenib 0.036 | [1] -0.006 | barasertib -0.038 | [2] -0.004 | volasertib -0.009 | [3] -0.021 | [4] 0 | [5] -0.023 | saracatinib 0.016 | sotrastaurin 0.008

KPNA2 (UniProt P52292)
inactive: vemurafenib 0.001 | [1] 0 | barasertib 0.05 | [2] -0.037 | volasertib -0.051 | [3] 0.004 | [4] -0.033 | [5] -0.041 | saracatinib 0.005 | sotrastaurin 0.038
